## Primary screen of a compound library

Each number is a percent effect as filed. The controls that fix the scale are not given in the record; negative values are as filed. This is an unselected part of the compounds tested.

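Phenotypic screen: M. tuberculosis growth, glucose 7H9 medium, 3 days; the read-out is not stated. Concentration: 500 µM. Higher reads as more growth inhibition (inferred: compounds with an IC50 in retests scored well above the rest). About 18,000 compounds were tested under these conditions; 7.9% (about 1,400) showed 50% or more at least once.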

{"structure": "CCC1CN(C(=O)[C@H](O)c2ccccc2Cl)CCO1", "stereo": "some centres undefined", "effect": 23.18}
{"structure": "Cc1ccc(OCc2ccnc(N(C)C)c2)nc1", "effect": 0.7459}
{"structure": "CN(C(=O)c1ccc(Cl)cc1)c1nncs1", "effect": -11.05}
{"structure": "COc1ccccc1CNCCCSc1nnnn1C", "effect": 13.61}
{"structure": "Cn1ncc(I)c1C(=O)Nc1ccon1", "effect": 48.94}
{"structure": "CN(C)C(=O)OCCN", "effect": 9.384}
{"structure": "CSCc1noc(CN2CCN(C3CCNC3)CC2)n1", "stereo": "centres undefined", "effect": 13.95}
{"structure": "CCS(=O)(=O)N1CCCN(C(=O)NC(C)(C)C)CC1", "effect": 9.333}
{"structure": "NCC1CCCOC1", "stereo": "centres undefined", "effect": -5.389}
{"structure": "CCN1CCC(NC(=O)C2CCCC2)CC1", "effect": 0.5075}
{"structure": "CCCC1=NNC(=O)C1", "effect": 14.42}
{"structure": "CN(C)c1nccc(NC(=O)c2ccc(Br)o2)n1", "effect": 17.48}
{"structure": "CC(C)(C)C(CCO)NC(=O)c1ccsc1", "stereo": "centres undefined", "effect": 0.1922}
{"structure": "O=C(NC1CC1)C1CCCN1c1ccc2nnnn2n1", "stereo": "centres undefined", "effect": -19.14}
{"structure": "CC(=O)Nc1nnc(C2CCCN2)o1", "stereo": "centres undefined", "effect": 3.434}
{"structure": "Cc1cccc2[nH]c(CO)cc12", "effect": 8.202}
{"structure": "NCC(=O)N1CCCC(CCc2ccc(F)cc2)C1", "stereo": "centres undefined", "effect": 78.91}
{"structure": "COc1cccc(CNCCCS(C)(=O)=O)c1OC", "effect": 23.48}
{"structure": "Cc1c[nH]c(C(C)NC(=O)c2ccc3[nH]nnc3c2)n1", "stereo": "centres undefined", "effect": 5.619}
{"structure": "N#CCC(=O)NC1CCN(CC2CCCC2)CC1", "effect": 9.41}
{"structure": "CO[C@H]1CC[C@H](NC(=O)c2cc(C)[nH]c(=O)c2)CC1", "effect": -23.46}
{"structure": "CC(C)S(=O)(=O)N(C)C(=O)c1cc(Br)c2c(c1)OCO2", "effect": 2.298}
{"structure": "Cc1c(Cl)cccc1NC(=O)CSc1nnc[nH]1", "effect": 14.38}
{"structure": "O=C(c1ccc2ccccc2c1O)N1CCOCC1", "effect": 24.99}
{"structure": "NC(=O)C1(CNCc2cccc(F)c2)CCOCC1", "effect": -0.8624}
{"structure": "NCCN1CCC(C(N)=O)CC1", "effect": 17.78}
{"structure": "Cc1c[nH]c(=O)c(C#N)c1", "effect": -2.999}
{"structure": "NC[C@@H]1OC[C@@H]2COCC[C@@H]21", "effect": 0.336}
{"structure": "NCC(CO)Cc1ccc(F)c(F)c1", "stereo": "centres undefined", "effect": 26.42}
{"structure": "COc1ccc(CN2CCCC3(CCOCC3)C2)cn1", "effect": 18.68}
{"structure": "Cc1n[nH]cc1CNCc1ccccc1CO", "effect": 34.64}
{"structure": "COC(=O)C1CCCCN1C(=O)c1cccn1C", "stereo": "centres undefined", "effect": 16.84}
{"structure": "CCOC(=O)C1=C(CN(C)CC)NC(=O)NC1", "effect": -21.67}
{"structure": "CCC(C)N(CC(=O)OC)Cc1nccn1C", "stereo": "centres undefined", "effect": 6.518}
{"structure": "Cc1noc(C)c1CN1CCNC(=O)C1c1cccs1", "stereo": "centres undefined", "effect": 16.56}
{"structure": "Cc1noc(C)c1CC(=O)N1CCC(CC(N)=O)CC1", "effect": -1.589}
{"structure": "CN(Cc1cnn(C)c1)C(=O)C1CCCN(C(N)=O)C1", "stereo": "centres undefined", "effect": 8.624}
{"structure": "CCc1cc(N2CCCC(N)C2)ncn1", "stereo": "centres undefined", "effect": 49.09}
{"structure": "CCCn1ncc(CN2CCC(COC)C2)c1C", "stereo": "centres undefined", "effect": 17.28}
{"structure": "CCOCCn1cnn(C(C)(C)C)c1=O", "effect": 6.447}
{"structure": "CC[C@@]1(O)CCN(c2cc(N)nc(SC)n2)C[C@H]1O", "effect": -6.23}
{"structure": "CCCn1ccnc1CNC(=O)C(C)NC(=O)OC", "stereo": "centres undefined", "effect": -7.225}
{"structure": "CCN(CC(=O)NCc1ccccn1)CC1CCOC1", "stereo": "centres undefined", "effect": -0.6344}
{"structure": "CCN(CC)C1CCN(C(=O)Cc2cccnc2)CC1", "effect": 6.732}
{"structure": "CC1=NOC(C)(CNC(=O)Nc2ccc(F)cc2)C1", "stereo": "centres undefined", "effect": 35.05}
{"structure": "CC1CCOCCN1C(=O)c1ccoc1Br", "stereo": "centres undefined", "effect": 9.056}
{"structure": "CCC(=O)NCCc1noc(COC)n1", "effect": 2.286}
{"structure": "Cc1ccccc1OCCC(=O)NC1CCS(=O)(=O)C1", "stereo": "centres undefined", "effect": 18.94}
{"structure": "CCOCCOC(C)C(=O)n1ncc(C#N)c1N", "stereo": "centres undefined", "effect": 10.09}
{"structure": "Cc1cc(CN2CCN(C(=O)N(C)C)CC2)on1", "effect": 14.8}
{"structure": "O=C(CN(CC(=O)NC1CC1)C1CC1)NC1CC1", "effect": -1.456}
{"structure": "CCS(=O)(=O)N1CCC(NC(=O)c2ccc(Cl)o2)CC1", "effect": 2.313}
{"structure": "O=C(C1CCCN(c2ccncc2Cl)C1)N1CCCC1", "stereo": "centres undefined", "effect": -9.149}

Some entries from above, unchanged:

{"structure": "CN(Cc1cnn(C)c1)C(=O)C1CCCN(C(N)=O)C1", "stereo": "centres undefined", "effect": 8.624}
{"structure": "CC1CCOCCN1C(=O)c1ccoc1Br", "stereo": "centres undefined", "effect": 9.056}
{"structure": "CCOC(=O)C1=C(CN(C)CC)NC(=O)NC1", "effect": -21.67}
{"structure": "CCS(=O)(=O)N1CCCN(C(=O)NC(C)(C)C)CC1", "effect": 9.333}

From ChEMBL document CHEMBL3988442, “University of Dundee, Small-Polar-MMV Screening Library” (2021).